The target of the assay is PspF(1–275)WT (AAA+ domain of PspF) (E. coli) (UniProt P37344). Briefly: native gel or EMSA; trapping with ADP-AlF: 1 μM radiolabelled HMK-σ^54, 2 μM PspF1–275 WT or W56A, different concentrations of PspAFL or fragments, 4 mM ADP, 5 mM NaF, 0.4 mM AlCl3, 37 °C; native 4.5% polyacrylamide gel in TG buffer; both purified.

Sequences of proteins named here, by UniProt entry; tags and fusion partners are left off.
UniProt P06223: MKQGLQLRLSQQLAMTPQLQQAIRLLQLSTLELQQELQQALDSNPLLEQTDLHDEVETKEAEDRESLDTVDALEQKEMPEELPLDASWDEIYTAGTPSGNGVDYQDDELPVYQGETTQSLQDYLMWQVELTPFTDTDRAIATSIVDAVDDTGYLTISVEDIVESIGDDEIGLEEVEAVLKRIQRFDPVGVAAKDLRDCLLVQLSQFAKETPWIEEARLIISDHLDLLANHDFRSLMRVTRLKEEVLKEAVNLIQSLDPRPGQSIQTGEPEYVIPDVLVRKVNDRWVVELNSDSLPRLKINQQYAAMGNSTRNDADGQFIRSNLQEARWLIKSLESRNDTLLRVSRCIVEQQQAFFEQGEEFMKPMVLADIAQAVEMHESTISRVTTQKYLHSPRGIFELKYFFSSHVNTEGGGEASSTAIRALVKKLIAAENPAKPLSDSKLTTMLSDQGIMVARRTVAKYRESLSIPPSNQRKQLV

No constants are given. Whether binding was seen depends on the method and setting. Some results given as binding are weak or reduced against the parent protein; the word gives no strength.

With “HMK-σ^54 (radiolabelled) (from UniProt P06223 1-477)”, the binding result was “binds”.

Source of the values: publication PMC3128695.
